Here are results for four molecules from paper PMC10835844.

The chains behind the UniProt entries cited, without tags or fusion partners. Where a name states a change or a piece, a line headed by the entry shows the natural chain unless it says otherwise.
UniProt Q14258: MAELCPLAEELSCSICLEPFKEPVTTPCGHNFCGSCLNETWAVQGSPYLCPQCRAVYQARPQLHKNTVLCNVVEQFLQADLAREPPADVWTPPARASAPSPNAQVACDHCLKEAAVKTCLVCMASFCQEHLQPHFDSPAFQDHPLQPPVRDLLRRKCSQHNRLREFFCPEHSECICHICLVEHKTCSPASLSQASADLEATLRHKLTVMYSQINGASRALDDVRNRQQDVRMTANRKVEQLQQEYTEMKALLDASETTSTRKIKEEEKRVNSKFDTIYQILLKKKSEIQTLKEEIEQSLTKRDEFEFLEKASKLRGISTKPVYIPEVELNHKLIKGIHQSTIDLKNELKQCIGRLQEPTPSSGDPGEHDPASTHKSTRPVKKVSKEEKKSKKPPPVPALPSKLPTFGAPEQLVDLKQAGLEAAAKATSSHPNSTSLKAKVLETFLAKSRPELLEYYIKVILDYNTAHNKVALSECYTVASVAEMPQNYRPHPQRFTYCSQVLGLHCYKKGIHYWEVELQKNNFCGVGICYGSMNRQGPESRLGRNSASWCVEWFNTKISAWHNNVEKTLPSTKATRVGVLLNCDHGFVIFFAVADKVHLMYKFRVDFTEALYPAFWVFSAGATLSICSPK

For test [1], the target named is T1, HA-NONO full length (UniProt Q15233).
T1 sequence: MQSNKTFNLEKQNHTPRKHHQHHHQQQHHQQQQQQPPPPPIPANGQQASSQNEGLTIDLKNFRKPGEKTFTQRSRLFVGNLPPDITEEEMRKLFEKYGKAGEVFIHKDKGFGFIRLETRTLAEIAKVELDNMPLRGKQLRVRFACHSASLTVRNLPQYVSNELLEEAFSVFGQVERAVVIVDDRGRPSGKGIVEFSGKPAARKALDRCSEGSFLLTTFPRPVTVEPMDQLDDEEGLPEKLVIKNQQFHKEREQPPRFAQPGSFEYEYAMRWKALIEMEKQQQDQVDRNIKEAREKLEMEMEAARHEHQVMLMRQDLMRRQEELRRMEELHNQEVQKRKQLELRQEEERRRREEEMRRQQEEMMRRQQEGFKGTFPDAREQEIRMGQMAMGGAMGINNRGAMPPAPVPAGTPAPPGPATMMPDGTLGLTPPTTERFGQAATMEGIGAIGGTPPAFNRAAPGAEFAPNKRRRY
Description: co-IP; lysates of HEK293 cells transfected with HA-NONO and Flag-TRIM25 constructs; protein A/G magnetic beads, IP lysis buffer, overnight at 4 °C, immunoblotting; which tag was precipitated is not told. A general note: A western blot detects proteins with antibodies after separation by electrophoresis.

Test [2] addresses T2, NONO (Non-POU domain containing octamer binding), endogenous (human (endogenous in LN229 and U251)) (UniProt Q15233).
T2 sequence: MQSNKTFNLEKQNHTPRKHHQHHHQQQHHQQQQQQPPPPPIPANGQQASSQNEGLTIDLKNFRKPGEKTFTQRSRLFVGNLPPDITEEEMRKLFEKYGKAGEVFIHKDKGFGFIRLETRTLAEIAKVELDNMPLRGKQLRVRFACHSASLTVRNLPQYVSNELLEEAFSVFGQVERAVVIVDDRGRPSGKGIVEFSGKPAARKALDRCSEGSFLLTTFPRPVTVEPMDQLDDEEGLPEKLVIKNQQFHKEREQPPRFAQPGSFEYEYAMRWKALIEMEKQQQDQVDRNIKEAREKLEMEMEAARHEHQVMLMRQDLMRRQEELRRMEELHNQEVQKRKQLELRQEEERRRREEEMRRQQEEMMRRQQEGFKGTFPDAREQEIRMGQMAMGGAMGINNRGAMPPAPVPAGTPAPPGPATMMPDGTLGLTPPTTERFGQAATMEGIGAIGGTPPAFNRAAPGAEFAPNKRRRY
Description: co-IP; endogenous proteins; anti-TRIM25 or anti-NONO antibody or IgG on protein A/G magnetic beads, LN229 and U251 lysates (IP lysis buffer, overnight at 4 °C), immunoblotting.

Test [3] addresses Flag-TRIM25 full length (UniProt Q14258). In words: co-IP; lysates of HEK293 cells transfected with HA-NONO and Flag-TRIM25 constructs; protein A/G magnetic beads, IP lysis buffer, overnight at 4 °C, immunoblotting; which tag was precipitated is not told.
The target of test [4] is Tripartite motif 25 (TRIM25), endogenous (human (endogenous in LN229 and U251)) (UniProt Q14258). In words: co-IP; endogenous proteins; anti-TRIM25 or anti-NONO antibody or IgG on protein A/G magnetic beads, LN229 and U251 lysates (IP lysis buffer, overnight at 4 °C), immunoblotting.

These are yes or no findings as the source states them, for the method shown. Binding seen in cells or lysates may run through a third protein. Some entries that bind do so weakly or less than the wild type. For some of these results: Where a sequence is shown, tags or fusion partners need not be part of it.

With “Flag-TRIM25 ∆P-SPRY (deletion of amino acids 410–630) (from UniProt Q14258 1-409) (domain or fragment)”, the binding result in test [1] is “binds”.
With “Tripartite motif 25 (TRIM25), endogenous (from UniProt Q14258 1-630)”, in test [2], the binding entry is on record as “binds”.

B1: HA-NONO ∆RRM2 (deletion of amino acids 148–229) (protein, UniProt Q15233)
chain: MQSNKTFNLEKQNHTPRKHHQHHHQQQHHQQQQQQPPPPPIPANGQQASSQNEGLTIDLKNFRKPGEKTFTQRSRLFVGNLPPDITEEEMRKLFEKYGKAGEVFIHKDKGFGFIRLETRTLAEIAKVELDNMPLRGKQLRVRFACHSLDDEEGLPEKLVIKNQQFHKEREQPPRFAQPGSFEYEYAMRWKALIEMEKQQQDQVDRNIKEAREKLEMEMEAARHEHQVMLMRQDLMRRQEELRRMEELHNQEVQKRKQLELRQEEERRRREEEMRRQQEEMMRRQQEGFKGTFPDAREQEIRMGQMAMGGAMGINNRGAMPPAPVPAGTPAPPGPATMMPDGTLGLTPPTTERFGQAATMEGIGAIGGTPPAFNRAAPGAEFAPNKRRRY
B1: the binding entry in test [3] is listed as “binds”.

B2: NONO (Non-POU domain containing octamer binding), endogenous (protein, UniProt Q15233 1-471)
chain: MQSNKTFNLEKQNHTPRKHHQHHHQQQHHQQQQQQPPPPPIPANGQQASSQNEGLTIDLKNFRKPGEKTFTQRSRLFVGNLPPDITEEEMRKLFEKYGKAGEVFIHKDKGFGFIRLETRTLAEIAKVELDNMPLRGKQLRVRFACHSASLTVRNLPQYVSNELLEEAFSVFGQVERAVVIVDDRGRPSGKGIVEFSGKPAARKALDRCSEGSFLLTTFPRPVTVEPMDQLDDEEGLPEKLVIKNQQFHKEREQPPRFAQPGSFEYEYAMRWKALIEMEKQQQDQVDRNIKEAREKLEMEMEAARHEHQVMLMRQDLMRRQEELRRMEELHNQEVQKRKQLELRQEEERRRREEEMRRQQEEMMRRQQEGFKGTFPDAREQEIRMGQMAMGGAMGINNRGAMPPAPVPAGTPAPPGPATMMPDGTLGLTPPTTERFGQAATMEGIGAIGGTPPAFNRAAPGAEFAPNKRRRY
With B2, the binding result in test [4] was “binds”.
